# PubChem BioAssay AID504784 | Drosophila RNAi Screening Center – 2011
# Screen: 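Genome-wide knock-down for genes giving too much or too little stored lipid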 (primary screen)
# Cell system: Drosophila Kc167 embryonic cells
# Knock-down reagent: long dsRNA against Drosophila genes, about 250 ng dsRNA per well
# Timing: 4 days
# Treatment: cells fed 400 µM oleic acid bound to BSA
# Detection: 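Microscope images give a droplet-to-nucleus area ratio, taken as log and converted to a screen-wide B-score; higher values mean greater lipid storage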
# Direction: droplet/nuclear area B-score: higher = more stored lipid (overstorage)
# The screen tested about 17,000 reagents; shown is a random part of those with a known target gene and a result. 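Each column is one replicate's B-score; the combined score over replicates was not deposited, so single values may mislead.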 Names joined by + are all predicted targets of the reagent. No sequences are given here.
Target gene,amplicon,"droplet/nuclear area B-score, replicate 1","droplet/nuclear area B-score, replicate 2","droplet/nuclear area B-score, replicate 3"
Pabp2 (GeneID 35788),DRSC07501,7.99,4.02,
rib (GeneID 44855),DRSC07021,-0.138,0.381,
hdly (GeneID 42478),DRSC15849,0.279,0.811,
Hibch (GeneID 41869),DRSC15705,0.147,5.98,
CG7910 (GeneID 40956),DRSC16341,1.29,0.61,
Polr2J (GeneID 35043),DRSC02995,1.51,-1,
CG3919 (GeneID 39582),DRSC10389,2.12,0.0935,-0.0574
Vajk3 (GeneID 34812),DRSC01883,0.719,-0.837,
CG42260 (GeneID 37614),DRSC03953,2.41,0.324,
CG42260 (GeneID 37614),DRSC04172,-0.236,-0.144,
CG42260 (GeneID 37614),DRSC04385,0.509,-0.643,
CR31700 (GeneID 8673969),DRSC03682,0.465,0.41,
tipE (GeneID 38504),DRSC08738,0.483,-0.565,
Acp29AB (GeneID 34162),DRSC01857,5.07,0.41,
CG12343 (GeneID 36143),DRSC06135,0.00267,-0.95,
CG32590 (GeneID 318103),DRSC19594,-1.36,4.79,
Pbp45 (GeneID 41920),DRSC16509,1.09,-0.0994,
Acsf3 (GeneID 31668),DRSC18146,0.936,1.81,
Prestin (GeneID 39996),DRSC10507,-1.08,0.169,
CG42360 (GeneID 37937),DRSC04224,-0.878,-0.0111,
CG7968 (GeneID 34802),DRSC01903,0.376,0.415,
swaPsi (GeneID 3771807),DRSC21685,-1.14,-0.747,
CG7432 (GeneID 42347),DRSC16243,-0.771,-0.658,
TotA (GeneID 44121),DRSC13448,1.31,-0.769,
Polr3H (GeneID 39310),DRSC10817,0.0225,-0.329,
Eig71Ek (GeneID 39712),DRSC11158,-0.025,-1.36,
CG14420 (GeneID 31284),DRSC17917,-1.73,0.252,
CG42271 (GeneID 2768892),DRSC19809,-0.0205,0.122,-0.00731
CG42271 (GeneID 2768892),DRSC22894,0.577,-0.354,
Adgf-C (GeneID 41680),DRSC16473,-1.05,0.674,
Lkr (GeneID 38622),DRSC09754,0.899,-0.945,
Cap-D2 (GeneID 43491),DRSC15401,0.372,-1.36,
RASSF8 (GeneID 43096),DRSC15707,0.0183,5.27,
CG7551 (GeneID 39280),DRSC10876,-0.133,-0.657,
mkg-p + Tpt,DRSC10777,-0.267,-1.34,
CG3198 (GeneID 31602),DRSC18292,-0.323,0.385,
Mob3 (GeneID 34372),DRSC02791,-3.54,-1.09,
sigmar (GeneID 37751),DRSC04449,-0.113,-1.49,
Tctp (GeneID 41341),DRSC15649,-0.774,0.0697,
Dbct (GeneID 32441),DRSC19951,0.0109,-0.961,-1.39
CG5770 (GeneID 37054),DRSC06954,2.81,-0.33,

14 entries from above, set out differently:
swaPsi (GeneID 3771807) [DRSC21685]
- droplet/nuclear area B-score, replicate 1: -1.14
- droplet/nuclear area B-score, replicate 2: -0.747

CG7432 (GeneID 42347) [DRSC16243]
- droplet/nuclear area B-score, replicate 1: -0.771
- droplet/nuclear area B-score, replicate 2: -0.658

TotA (GeneID 44121) [DRSC13448]
- droplet/nuclear area B-score, replicate 1: 1.31
- droplet/nuclear area B-score, replicate 2: -0.769

Polr3H (GeneID 39310) [DRSC10817]
- droplet/nuclear area B-score, replicate 1: 0.0225
- droplet/nuclear area B-score, replicate 2: -0.329

Eig71Ek (GeneID 39712) [DRSC11158]
- droplet/nuclear area B-score, replicate 1: -0.025
- droplet/nuclear area B-score, replicate 2: -1.36

CG14420 (GeneID 31284) [DRSC17917]
- droplet/nuclear area B-score, replicate 1: -1.73
- droplet/nuclear area B-score, replicate 2: 0.252

CG42271 (GeneID 2768892) [DRSC19809]
- droplet/nuclear area B-score, replicate 1: -0.0205
- droplet/nuclear area B-score, replicate 2: 0.122
- droplet/nuclear area B-score, replicate 3: -0.00731

CG42271 (GeneID 2768892) [DRSC22894]
- droplet/nuclear area B-score, replicate 1: 0.577
- droplet/nuclear area B-score, replicate 2: -0.354

Adgf-C (GeneID 41680) [DRSC16473]
- droplet/nuclear area B-score, replicate 1: -1.05
- droplet/nuclear area B-score, replicate 2: 0.674

Lkr (GeneID 38622) [DRSC09754]
- droplet/nuclear area B-score, replicate 1: 0.899
- droplet/nuclear area B-score, replicate 2: -0.945

Cap-D2 (GeneID 43491) [DRSC15401]
- droplet/nuclear area B-score, replicate 1: 0.372
- droplet/nuclear area B-score, replicate 2: -1.36

RASSF8 (GeneID 43096) [DRSC15707]
- droplet/nuclear area B-score, replicate 1: 0.0183
- droplet/nuclear area B-score, replicate 2: 5.27

CG7551 (GeneID 39280) [DRSC10876]
- droplet/nuclear area B-score, replicate 1: -0.133
- droplet/nuclear area B-score, replicate 2: -0.657

mkg-p + Tpt [DRSC10777]
- droplet/nuclear area B-score, replicate 1: -0.267
- droplet/nuclear area B-score, replicate 2: -1.34

More records follow.
Target gene,amplicon,"droplet/nuclear area B-score, replicate 1","droplet/nuclear area B-score, replicate 2","droplet/nuclear area B-score, replicate 3"
mRNA-cap (GeneID 32379),DRSC19789,0.928,1.78,
Ir7e (GeneID 7354417),DRSC18011,0.373,0.000428,
Hk (GeneID 31955),DRSC17638,-1.02,-3.6,
Hk (GeneID 31955),DRSC18138,1.03,-1.57,-0.184
Hk (GeneID 31955),DRSC18674,1.8,0.148,6.83
ham (GeneID 35135),DRSC02070,-0.241,0.848,
ham (GeneID 35135),DRSC02512,-0.282,-1.48,0.0134
ham (GeneID 35135),DRSC02513,0.48,0.0974,
Blos3 (GeneID 5740347),DRSC09573,0.0172,-1.3,
CG11149 (GeneID 33800),DRSC02130,-0.189,-1.71,
La (GeneID 35305),DRSC03358,1.25,0.285,
Tep3 (GeneID 34045),DRSC03452,1.32,-0.562,
D1 (GeneID 41095),DRSC16638,0.984,-1.08,
LpR2 (GeneID 43105),DRSC13726,-0.35,1.75,
LpR2 (GeneID 43105),DRSC13728,-0.918,-0.0978,
LpR2 (GeneID 43105),DRSC15655,-0.465,,
LpR2 (GeneID 43105),DRSC15658,1.25,0.427,
CG43347 (GeneID 31991),DRSC17982,1.87,0.81,1.72
CG43347 (GeneID 31991),DRSC18446,-0.432,1.14,-0.5
CG43347 (GeneID 31991),DRSC22656,0.0637,1.36,
CG43347 (GeneID 31991),DRSC22682,-1.11,-1.4,
CG43347 (GeneID 31991),DRSC23007,0.24,0.357,
CG43347 (GeneID 31991),DRSC23170,-0.0558,-0.369,
X11L (GeneID 252671),DRSC19958,0.06,0.521,0.526
X11L (GeneID 252671),DRSC19959,-3.77,-0.616,
Tak1 (GeneID 39659),DRSC20390,-0.383,-1.19,
Tak1 (GeneID 39659),DRSC20561,0.558,0.133,
Tak1 (GeneID 39659),DRSC20562,1.39,0.127,
Spn88Ea (GeneID 49804),DRSC17061,-0.177,-2.16,
bcn92 (GeneID 31186),DRSC18741,0.0207,-1.3,
CG3662 (GeneID 33260),DRSC00626,0.274,0.0212,
CG3106 (GeneID 31909),DRSC18279,-0.525,1.86,-1.03
CG13814 (retired record) (GeneID 40223),DRSC10069,2.46,-0.35,
Sobp (GeneID 36260),DRSC07312,1.38,-0.394,
CG15728 (GeneID 32214),DRSC19694,0.556,0.308,0.144
CG15728 (GeneID 32214),DRSC22868,-2.33,-1.22,
wus (GeneID 32683),DRSC20278,-0.521,-0.00901,
CG9449 (GeneID 40117),DRSC11073,-0.316,-1.3,
CG9308 (GeneID 37507),DRSC04539,-0.233,-0.298,
RapGAP1 (GeneID 34032),DRSC02293,-1.2,0.906,1.12
RapGAP1 (GeneID 34032),DRSC02294,-0.288,-0.292,
RapGAP1 (GeneID 34032),DRSC03406,0.0133,0.0881,
